Patent US9403755B2, “Isometheptene isomer” (TONIX PHARMACEUTICALS INC., priority 2013, dated 2016)
“And” between values parts separate entries of the source, which are not always exact repeats. Identical values can stand only once. For at least one compound, name, drawing or mass did not settle the structure.

Key:
[1] = tested on: vagosympathectomized dogs; conditions: 1 minute intra-arterial infusions at 10, 30, 100, and 300 μg/min; cited from earlier work
[2] = tested on: anaesthetized cats; conditions: IV 0.25 mg/kg for each of 4 treatments; cited from earlier work
[3] = tested on: α1-, α2A- or β-adrenergic receptors, serotonin receptors; experiment: receptor screening at 10 μM, receptors without meaningful binding
[4] = tested on: male Wistar rats; conditions: IV consecutive doses of 0.03, 0.1, 0.3, 1, and 3 mg/kg; cited from earlier work
[5] = tested on: Sigma receptor (non-selective); experiment: ligand binding screen, non-selective Sigma receptor; conditions: Sigma (non-select), inhibition of ligand binding
[6] = target: Imidazoline 1 (I1) receptor; experiment: Imidazoline I1 receptor radioligand binding assay; set-up: species or system bovine
Procedure: Evaluation of the Affinity of Compounds for the Peripheral Imidazoline Receptor in Bovine Adrenal Medulla Glands Determined in a Radioligand Binding Assay.
Membrane homogenates of adrenal medulla glands (200 μg protein) are incubated for 60 min at 22° C. with 15 nM [^3H]clonidine in the absence or presence of the test compound in a buffer containing 137 mM NaCl, 2.68 mM KCl, 0.5 mM MgCl2, 8.1 mM Na2HPO4, 1.47 mM KH2PO4, 0.5 mM EGTA, 0.5 mM EDTA, 0.5% ascorbic acid and 0.1% BSA (pH 7.4). It also contains 10 μM RX821002 to block the α2-adrenergic receptors.
Nonspecific binding is determined in the presence of 10 μM rilmenidine.
Following incubation, the samples are filtered rapidly under vacuum through glass fiber filters (GF/B, Packard) presoaked with 0.3% PEI and rinsed several times with ice-cold 50 mM Tris-HCl using a 96-sample cell harvester (Unifilter, Packard). The filters are dried then counted for radioactivity in a scintillation counter (Topcount, Packard) using a scintillation cocktail (Microscint 0, Packard).
The results are expressed as a percent inhibition of the control radioligand specific binding.
The standard reference compound is rilmenidine, which is tested in each experiment at several concentrations to obtain a competition curve from which its IC50 is calculated. […]

[7] = tested on: porcine meningeal artery segments; conditions: about 0.01 to 50 μM; cited from earlier work

CNC(C)CCC=C(C)C (racemic) [Racemic, reference compound]
effect on external carotid blood flow [1]: dose-dependent decreases in external carotid blood flow
vasoconstriction [2]: vasoconstriction in the arteriovenous anastomoses
meaningful binding (i.e, >70% inhibition) on screening [3]: did not show meaningful binding
heart rate and diastolic blood pressure response [4]: dose-dependent increases in heart rate and diastolic blood pressure
Inhibition @ 10 μM(%) [5]: 62%
Ki ([6]; equilibrium binding): 42 nM
Inhibition @ 10 μM(%) ([6]; inhibition of ligand binding, 10 μM, listed as racemic Isometheptene): 95% and > 95%
contraction of the meningeal artery [7]: failed to contract the meningeal artery
